Laboratory results published in doi:10.1101/2025.09.22.677724.
Residue numbers refer to the chain shown, from its start. Numbers in names are those of the source. No constants are given. Whether binding was seen depends on the method and setting. Some binding calls cover weakened binding; strength is not graded here.

Amino acid sequences for entries named in this document (tags omitted).
UniProt Q10428: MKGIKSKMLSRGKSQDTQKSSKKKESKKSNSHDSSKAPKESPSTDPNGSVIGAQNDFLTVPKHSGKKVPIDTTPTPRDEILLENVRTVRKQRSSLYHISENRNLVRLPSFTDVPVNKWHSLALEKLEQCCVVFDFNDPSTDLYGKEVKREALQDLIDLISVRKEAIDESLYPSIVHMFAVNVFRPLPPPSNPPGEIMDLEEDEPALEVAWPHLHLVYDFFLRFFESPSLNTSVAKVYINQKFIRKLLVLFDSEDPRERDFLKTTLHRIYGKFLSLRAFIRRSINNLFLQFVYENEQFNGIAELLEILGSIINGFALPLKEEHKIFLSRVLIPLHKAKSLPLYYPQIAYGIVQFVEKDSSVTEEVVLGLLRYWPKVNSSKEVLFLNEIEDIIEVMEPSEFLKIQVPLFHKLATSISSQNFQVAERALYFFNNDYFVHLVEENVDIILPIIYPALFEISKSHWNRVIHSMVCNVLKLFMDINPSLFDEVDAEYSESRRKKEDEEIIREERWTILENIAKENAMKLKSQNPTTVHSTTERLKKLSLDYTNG

B1: Sgo1 (shugoshin), Gal4 activation domain prey (protein, UniProt Q9P7A0 1-319)
chain: MNFQFINSNINNEDKLPMESLKKKFLKQNREIIKINTQLSIKIRESENEIQDLIQENFTLKSYLVKLEARFRNQSQTEDLLKNFFPEIQTIHKKISQVQSLLKIIEKKCSSDFLEANVKSQFTTCENKDSKEDYQILHNKRLEYVSFNDELKSLETGQPLYCFQDFQKKVHGPPALSEKPGKCILKDKTNAHVNKIPQDEVNYSLPQKNITIFSKELKENEFESINEGETEEEKAKTSNVCVCIPCKSAEQITDLKGQATGDSSPCDFEESQPRINGREKLRRSVKVINYAIPSLRTKLRRDFDLPSDRKRKRHPRGKA
B2: Sgo1-N29I, Gal4 activation domain prey (protein, UniProt Q9P7A0 1-319)
chain: B1 chain with N29I
B3: Sgo1-L185A, Gal4 activation domain prey (protein, UniProt Q9P7A0 1-319)
chain: B1 chain with L185A
B4: Sgo1 (amino acid 81-211), Gal4 activation domain prey (domain or fragment, UniProt Q9P7A0 81-211)
chain: LKNFFPEIQTIHKKISQVQSLLKIIEKKCSSDFLEANVKSQFTTCENKDSKEDYQILHNKRLEYVSFNDELKSLETGQPLYCFQDFQKKVHGPPALSEKPGKCILKDKTNAHVNKIPQDEVNYSLPQKNIT
B5: Sgo1-T189A (amino acid 81-211), Gal4 activation domain prey (domain or fragment, UniProt Q9P7A0 81-211)
chain: B4 chain with T109A
B6: Sgo1-T189E (amino acid 81-211), Gal4 activation domain prey (domain or fragment, UniProt Q9P7A0 81-211)
chain: B4 chain with T109E

Molecular target: Par1 (PP2A regulatory B56 subunit), Gal4 DNA-binding domain bait (S. pombe) (UniProt Q10428)
Experiment: two-hybrid

Binder | binding
B1 | binds
B2 | no binding

Molecular target: T1, Slp1 (Cdc20 homolog), Gal4 DNA-binding domain bait (S. pombe) (UniProt P78972)
T1 sequence: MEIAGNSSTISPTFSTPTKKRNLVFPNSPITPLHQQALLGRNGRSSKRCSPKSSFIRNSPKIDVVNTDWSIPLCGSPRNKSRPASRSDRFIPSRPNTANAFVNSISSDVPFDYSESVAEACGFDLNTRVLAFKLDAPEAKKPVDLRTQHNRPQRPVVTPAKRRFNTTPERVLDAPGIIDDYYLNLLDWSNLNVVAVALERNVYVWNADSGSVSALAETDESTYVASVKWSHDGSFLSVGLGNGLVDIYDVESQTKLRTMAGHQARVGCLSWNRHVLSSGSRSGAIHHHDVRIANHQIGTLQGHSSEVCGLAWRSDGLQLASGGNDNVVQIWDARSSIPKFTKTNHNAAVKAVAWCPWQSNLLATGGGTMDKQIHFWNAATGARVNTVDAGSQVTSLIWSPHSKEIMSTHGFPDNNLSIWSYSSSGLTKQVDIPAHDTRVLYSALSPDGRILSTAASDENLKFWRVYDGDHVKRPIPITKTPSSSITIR
Experiment: two-hybrid

Binder | binding
B1 | binds
B3 | binds
B4 | binds
B5 | binds
B6 | binds
